Reference: PubChem BioAssay AID1259308 (NCATS, 2017)
Shown is a random part of about 59,000 deposited reagents. About 1,510 of all reagents (2.6%) were called active. 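Calls use total luciferase alone and ignore viability, so some active siRNAs may act by altering cell number.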

Test: 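Genes whose loss raises luciferase production in HEK293 cells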 (primary screen)
Cell system: human HEK293 embryonic kidney cells stably expressing firefly luciferase (HEK-CMV-Luc2-Hygro)
Reagent: single siRNA against human genes, 0.8 pmol siRNA per well
Time to read-out: 72 h
Measured: 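Luciferase light (ONE-Glo) measured on one replicate plate set and viability (CellTiter-Glo) on the other, scaled to a negative control siRNA, with robust z-scores and luciferase per cell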
Scale: total luciferase, z-score and total luciferase, % of control: higher = more reporter protein produced; luciferase per cell, z-score: higher = more reporter output per viable cell; viable cells, % of control: higher = more viable cells
Active means: 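An siRNA counts as active if its total luciferase robust z-score exceeds 3; genes with two or more such siRNAs out of three were retested with fresh siRNAs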
Meaning of the calls: active = raised luciferase; inactive = no rise

no.	Target gene	PubChem SID	total luciferase, z-score	total luciferase, % of control	luciferase per cell, z-score	viable cells, % of control	activity call
1	CIMAP2	SID160760066	3.16	145	3.52	64.1	active
2	CIMAP2	SID160760067	-1.1	60	0.168	64.2	inactive
3	CIMAP2	SID160760068	1.81	118	4.53	40	inactive
4	PCDHGA2	SID160744801	1.55	113	0.706	105	inactive
5	PCDHGA2	SID160744802	-0.797	66	-1	96.1	inactive
6	PCDHGA2	SID160744803	1.01	102	0.917	89.5	inactive
7	KRT10-AS1	SID160758488	0.887	99.5	0.29	103	inactive
8	KRT10-AS1	SID160758489	2.19	125	2	82.7	inactive
9	KRT10-AS1	SID160758490	-0.803	65.9	0.662	61.9	inactive
10	ANKRD37	SID160765182	-0.268	76.6	-0.413	95.4	inactive
11	ANKRD37	SID160765183	0.623	94.3	0.79	85.6	inactive
12	ANKRD37	SID160765184	0.686	95.5	-0.084	109	inactive
13	TLR10	SID160750980	1.45	111	0.63	105	inactive
14	TLR10	SID160750981	-0.383	74.3	-0.515	95	inactive
15	TLR10	SID160750982	-0.683	68.3	-0.801	94.3	inactive
16	CCT7	SID160728767	1.01	102	1.5	76.8	inactive
17	CCT7	SID160728768	3.23	146	2.22	91	active
18	CCT7	SID160730453	3.57	153	3.06	76.3	active
19	KRTAP19-3	SID160763994	-0.752	66.9	-0.393	83	inactive
20	KRTAP19-3	SID160763995	-1.4	53.9	-0.613	70.8	inactive
21	KRTAP19-3	SID160763996	-0.956	62.9	-1.17	95.6	inactive
22	LINC01973	SID160733318	-1.15	59	-1.19	90	inactive
23	LINC01973	SID160733319	3.07	143	2.94	73.6	active
24	LINC01973	SID160767005	0.142	84.7	0.0641	93.1	inactive
25	C14orf119	SID160742758	0.0191	82.3	-0.61	108	inactive
26	C14orf119	SID160742759	0.111	84.1	0.231	88.4	inactive
27	C14orf119	SID160742760	-0.682	68.3	-0.567	88.6	inactive
28	EPHB6	SID160761083	0.78	97.4	0.708	90.3	inactive
29	EPHB6	SID160761094	-0.864	64.7	-1.24	100	inactive
30	EPHB6	SID160761105	-1.63	49.6	-2.17	98	inactive
31	PUM1	SID160722838	-0.236	77.2	-0.66	103	inactive
32	PUM1	SID160722839	1.37	109	1.03	93.1	inactive
33	PUM1	SID160722840	0.0867	83.6	-0.14	96.9	inactive
34	CYP24A1	SID160752049	0.239	86.6	0.0696	95.1	inactive
35	CYP24A1	SID160752059	1.52	112	1.32	88.6	inactive
36	CYP24A1	SID160752070	-0.961	62.8	-1.41	102	inactive
37	CPNE7	SID160738432	0.191	85.7	0.368	86.9	inactive
38	CPNE7	SID160738434	0.352	88.9	0.592	85	inactive
39	CPNE7	SID160738435	-2.05	41.1	-1.71	72.1	inactive
40	MAP3K7CL	SID160745277	2.27	127	1.47	96.4	inactive
41	MAP3K7CL	SID160745278	0.719	96.2	-0.338	117	inactive
42	MAP3K7CL	SID160745279	1.1	104	0.103	113	inactive
43	KCNJ2-AS1	SID160767001	0.887	99.5	1.73	70.6	inactive
44	KCNJ2-AS1	SID160767002	-0.0622	80.6	0.704	74.9	inactive
45	KCNJ2-AS1	SID160767003	0.594	93.7	0.742	86.1	inactive
46	CERS3	SID160761167	0.193	85.7	0.369	86.9	inactive
47	CERS3	SID160761168	-0.887	64.3	-0.306	77.8	inactive
48	CERS3	SID160761170	1.08	103	0.62	98.1	inactive
49	SCP2	SID160727855	0.885	99.5	0.3	103	inactive
50	SCP2	SID160727856	-1.55	51	-1.56	86	inactive
51	SCP2	SID160727857	-0.406	73.8	-0.823	102	inactive
52	CNIH1	SID160726529	0.908	100	2.18	62.8	inactive
53	CNIH1	SID160726534	0.291	87.7	0.507	85.7	inactive
54	CNIH1	SID160732266	-1.11	59.8	-1.49	99	inactive
55	HJURP	SID160743625	0.247	86.8	0.24	91.1	inactive
56	HJURP	SID160743626	0.249	86.8	0.0066	96.9	inactive
57	HJURP	SID160743627	0.802	97.8	0.586	93.7	inactive
58	ANKRD10	SID160743884	-0.201	77.9	-0.924	111	inactive
59	ANKRD10	SID160743885	-0.301	75.9	-0.204	89.5	inactive
60	ANKRD10	SID160743886	-0.11	79.7	-0.742	108	inactive
61	FCRL2	SID160748839	-0.343	75.1	0.259	78.3	inactive
62	FCRL2	SID160748840	0.242	86.7	0.69	80.8	inactive
63	FCRL2	SID160748841	-0.742	67.1	-0.169	78.4	inactive
64	DMD	SID160754920	0.975	101	0.966	87.7	inactive
65	DMD	SID160754931	-0.377	74.4	-0.428	93.1	inactive
66	DMD	SID160754942	0.001	81.9	0.0679	89.9	inactive
67	SOX1	SID160717193	-0.116	79.6	-0.909	113	inactive
68	SOX1	SID160717194	-0.479	72.4	-0.631	95.5	inactive
69	SOX1	SID160717195	1.4	110	0.0695	120	inactive
70	ENOSF1	SID160743792	-0.828	65.4	-0.762	89.3	inactive
71	ENOSF1	SID160743793	1.18	105	1.79	73.6	inactive
72	ENOSF1	SID160743794	0.509	92	0.823	82.8	inactive
73	PXDNL	SID160757546	-0.643	69.1	-0.206	81.5	inactive
74	PXDNL	SID160757547	-0.215	77.6	-0.167	90.6	inactive
75	PXDNL	SID160757548	-0.766	66.6	-0.723	90.1	inactive
